Consider 1 molecule from PMC10888420.

No constants are given. Whether binding was seen depends on the method and setting. Binding seen in cells or lysates may run through a third protein. Binding calls can cover weak binding; strength is not graded here. Sequences can lack the tags named with a protein.

This experiment deals with PwNAC31-cYFP fusion protein (Picea wilsonii). Kind of experiment: split reporter; BiFC: PwNAC31-cYFP (pSPYCE) with nYFP fusions (pSPYNE) transiently co-expressed in transgenic tobacco leaves with NLS-mCherry; confocal microscopy after 3 days; signal in the nuclei.

B1: ABF3 fused to nYFP (protein, UniProt Q9M7Q3 1-454)
chain: MGSRLNFKSFVDGVSEQQPTVGTSLPLTRQNSVFSLTFDEFQNSWGGGIGKDFGSMNMDELLKNIWTAEESHSMMGNNTSYTNISNGNSGNTVINGGGNNIGGLAVGVGGESGGFFTGGSLQRQGSLTLPRTISQKRVDDVWKELMKEDDIGNGVVNGGTSGIPQRQQTLGEMTLEEFLVRAGVVREEPQPVESVTNFNGGFYGFGSNGGLGTASNGFVANQPQDLSGNGVAVRQDLLTAQTQPLQMQQPQMVQQPQMVQQPQQLIQTQERPFPKQTTIAFSNTVDVVNRSQPATQCQEVKPSILGIHNHPMNNNLLQAVDFKTGVTVAAVSPGSQMSPDLTPKSALDASLSPVPYMFGRVRKTGAVLEKVIERRQKRMIKNRESAARSRARKQAYTMELEAEIAQLKELNEELQKKQVEIMEKQKNQLLEPLRQPWGMGCKRQCLRRTLTGPW
As for B1, the binding result was “binds”.
